Reference: the supplement of paper PMC6411743
± gives the standard deviation of the averaged measurements. The list shows a part of the results, in another mix than the full data.

Amino acid sequences for entries named in this document (tags omitted). A change or cut given only in a name is not applied to a line headed by its entry.
UniProt Q9HBF4: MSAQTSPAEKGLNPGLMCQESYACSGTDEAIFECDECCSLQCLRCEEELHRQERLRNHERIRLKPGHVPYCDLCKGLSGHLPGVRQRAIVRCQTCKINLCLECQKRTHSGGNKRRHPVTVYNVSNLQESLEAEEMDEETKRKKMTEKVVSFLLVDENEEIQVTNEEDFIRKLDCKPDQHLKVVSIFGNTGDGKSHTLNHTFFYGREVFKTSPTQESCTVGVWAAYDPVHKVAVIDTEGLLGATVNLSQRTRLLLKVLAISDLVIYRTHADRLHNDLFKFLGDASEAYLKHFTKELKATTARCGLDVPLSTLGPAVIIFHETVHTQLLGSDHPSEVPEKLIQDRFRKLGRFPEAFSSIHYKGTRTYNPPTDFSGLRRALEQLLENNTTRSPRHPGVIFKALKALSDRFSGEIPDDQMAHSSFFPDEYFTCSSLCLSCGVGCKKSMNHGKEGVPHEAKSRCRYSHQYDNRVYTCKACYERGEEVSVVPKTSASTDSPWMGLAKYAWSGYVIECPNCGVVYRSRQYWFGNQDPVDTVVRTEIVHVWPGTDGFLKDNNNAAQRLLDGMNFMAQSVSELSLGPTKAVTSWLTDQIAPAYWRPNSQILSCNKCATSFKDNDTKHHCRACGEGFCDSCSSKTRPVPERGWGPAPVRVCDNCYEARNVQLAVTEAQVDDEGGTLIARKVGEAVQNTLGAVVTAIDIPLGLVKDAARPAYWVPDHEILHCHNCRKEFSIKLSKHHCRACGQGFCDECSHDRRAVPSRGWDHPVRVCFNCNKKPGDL
UniProt O43502: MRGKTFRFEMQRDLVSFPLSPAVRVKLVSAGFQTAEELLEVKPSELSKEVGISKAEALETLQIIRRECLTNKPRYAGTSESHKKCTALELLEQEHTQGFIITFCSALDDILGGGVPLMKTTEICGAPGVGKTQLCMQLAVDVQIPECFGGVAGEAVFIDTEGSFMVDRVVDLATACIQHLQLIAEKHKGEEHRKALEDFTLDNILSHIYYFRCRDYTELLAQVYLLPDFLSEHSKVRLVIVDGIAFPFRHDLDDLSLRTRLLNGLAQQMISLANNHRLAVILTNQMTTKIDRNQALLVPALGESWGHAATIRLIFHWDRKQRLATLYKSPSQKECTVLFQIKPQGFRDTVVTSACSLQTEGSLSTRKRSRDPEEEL
UniProt Q96GD4, whole entry: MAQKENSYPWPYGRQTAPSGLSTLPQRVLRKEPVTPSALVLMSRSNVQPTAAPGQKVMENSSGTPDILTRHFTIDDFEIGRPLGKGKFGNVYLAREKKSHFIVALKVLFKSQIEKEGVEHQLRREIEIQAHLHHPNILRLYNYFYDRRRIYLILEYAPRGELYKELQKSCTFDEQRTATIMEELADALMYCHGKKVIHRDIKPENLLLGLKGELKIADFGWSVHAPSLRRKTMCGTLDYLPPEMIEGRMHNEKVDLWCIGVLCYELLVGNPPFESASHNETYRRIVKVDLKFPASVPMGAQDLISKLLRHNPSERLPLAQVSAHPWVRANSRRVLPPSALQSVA
UniProt Q5TC12: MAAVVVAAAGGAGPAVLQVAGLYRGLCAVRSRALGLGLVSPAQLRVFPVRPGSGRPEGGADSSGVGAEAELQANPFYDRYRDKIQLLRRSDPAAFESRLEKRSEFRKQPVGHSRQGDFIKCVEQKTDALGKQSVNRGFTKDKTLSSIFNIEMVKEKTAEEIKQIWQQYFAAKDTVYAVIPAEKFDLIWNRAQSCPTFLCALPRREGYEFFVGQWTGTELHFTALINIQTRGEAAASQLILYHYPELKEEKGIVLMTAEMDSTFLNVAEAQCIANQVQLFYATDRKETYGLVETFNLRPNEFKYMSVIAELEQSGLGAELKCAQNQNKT
UniProt P34949: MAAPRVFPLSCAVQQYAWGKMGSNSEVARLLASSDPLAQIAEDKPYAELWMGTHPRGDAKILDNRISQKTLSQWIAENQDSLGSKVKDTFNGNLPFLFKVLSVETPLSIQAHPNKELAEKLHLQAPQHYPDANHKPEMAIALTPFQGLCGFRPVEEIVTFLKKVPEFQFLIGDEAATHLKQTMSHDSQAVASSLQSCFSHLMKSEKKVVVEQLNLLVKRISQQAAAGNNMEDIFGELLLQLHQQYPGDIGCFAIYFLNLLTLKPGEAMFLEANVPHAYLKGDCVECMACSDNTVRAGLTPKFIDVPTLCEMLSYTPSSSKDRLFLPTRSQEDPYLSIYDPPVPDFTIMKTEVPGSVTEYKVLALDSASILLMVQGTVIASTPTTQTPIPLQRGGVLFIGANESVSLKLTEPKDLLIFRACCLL
UniProt O75674: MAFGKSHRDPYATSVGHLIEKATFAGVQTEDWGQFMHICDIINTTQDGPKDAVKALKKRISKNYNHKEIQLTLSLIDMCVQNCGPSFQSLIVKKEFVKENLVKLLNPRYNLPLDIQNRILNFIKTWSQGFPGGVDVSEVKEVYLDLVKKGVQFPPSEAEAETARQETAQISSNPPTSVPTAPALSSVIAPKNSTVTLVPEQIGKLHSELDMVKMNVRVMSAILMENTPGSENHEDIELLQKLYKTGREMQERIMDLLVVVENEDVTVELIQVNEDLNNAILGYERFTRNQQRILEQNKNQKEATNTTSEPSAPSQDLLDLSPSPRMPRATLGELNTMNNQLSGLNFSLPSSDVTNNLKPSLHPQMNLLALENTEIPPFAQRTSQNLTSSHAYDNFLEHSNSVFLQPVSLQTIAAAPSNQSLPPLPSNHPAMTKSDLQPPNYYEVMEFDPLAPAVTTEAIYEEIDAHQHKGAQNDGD
UniProt Q6PK04: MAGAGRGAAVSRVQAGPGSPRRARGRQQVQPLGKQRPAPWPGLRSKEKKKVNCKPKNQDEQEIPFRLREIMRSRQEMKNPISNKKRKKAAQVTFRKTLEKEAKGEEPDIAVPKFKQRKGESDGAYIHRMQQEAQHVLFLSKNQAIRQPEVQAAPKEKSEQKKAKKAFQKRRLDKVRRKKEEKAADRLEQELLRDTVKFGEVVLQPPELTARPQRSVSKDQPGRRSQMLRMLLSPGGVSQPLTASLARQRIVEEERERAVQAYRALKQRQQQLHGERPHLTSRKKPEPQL
UniProt Q9UPN4: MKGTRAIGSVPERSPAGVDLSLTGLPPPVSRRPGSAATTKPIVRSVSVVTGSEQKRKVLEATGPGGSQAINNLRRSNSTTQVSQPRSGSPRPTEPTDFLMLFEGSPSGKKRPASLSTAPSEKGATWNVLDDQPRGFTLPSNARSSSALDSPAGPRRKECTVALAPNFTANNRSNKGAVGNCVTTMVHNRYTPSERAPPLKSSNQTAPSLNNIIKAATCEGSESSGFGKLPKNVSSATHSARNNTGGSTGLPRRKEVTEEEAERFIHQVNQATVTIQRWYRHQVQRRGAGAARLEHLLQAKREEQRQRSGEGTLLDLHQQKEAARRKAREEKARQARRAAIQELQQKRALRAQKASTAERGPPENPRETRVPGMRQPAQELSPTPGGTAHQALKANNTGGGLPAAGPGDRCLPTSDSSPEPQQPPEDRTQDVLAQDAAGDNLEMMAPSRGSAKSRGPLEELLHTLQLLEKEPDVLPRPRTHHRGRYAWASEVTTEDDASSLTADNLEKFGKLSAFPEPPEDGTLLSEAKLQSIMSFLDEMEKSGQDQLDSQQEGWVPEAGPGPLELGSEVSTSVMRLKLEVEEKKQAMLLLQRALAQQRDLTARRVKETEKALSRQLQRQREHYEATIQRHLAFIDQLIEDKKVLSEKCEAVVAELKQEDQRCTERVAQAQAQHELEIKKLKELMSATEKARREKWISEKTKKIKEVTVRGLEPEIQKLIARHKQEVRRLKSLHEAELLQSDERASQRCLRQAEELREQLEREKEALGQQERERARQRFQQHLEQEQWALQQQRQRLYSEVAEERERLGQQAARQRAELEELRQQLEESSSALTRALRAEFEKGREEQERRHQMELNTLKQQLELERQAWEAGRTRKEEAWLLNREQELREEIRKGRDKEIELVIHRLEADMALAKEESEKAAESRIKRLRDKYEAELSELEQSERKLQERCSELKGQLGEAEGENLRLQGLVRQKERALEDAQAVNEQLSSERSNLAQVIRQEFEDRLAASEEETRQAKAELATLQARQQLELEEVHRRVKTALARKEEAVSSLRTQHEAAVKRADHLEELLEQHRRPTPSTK
UniProt P60842, whole entry: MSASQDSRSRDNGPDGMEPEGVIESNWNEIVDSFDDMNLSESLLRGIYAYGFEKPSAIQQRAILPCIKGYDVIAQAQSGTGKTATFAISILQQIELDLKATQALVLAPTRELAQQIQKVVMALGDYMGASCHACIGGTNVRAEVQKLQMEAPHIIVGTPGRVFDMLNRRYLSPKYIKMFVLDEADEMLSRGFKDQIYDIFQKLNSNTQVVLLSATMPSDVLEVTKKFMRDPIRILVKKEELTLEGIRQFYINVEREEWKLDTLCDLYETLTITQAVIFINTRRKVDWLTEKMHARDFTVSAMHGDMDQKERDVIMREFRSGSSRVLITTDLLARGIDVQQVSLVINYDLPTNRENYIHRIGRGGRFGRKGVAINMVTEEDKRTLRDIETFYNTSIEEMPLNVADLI
UniProt P30260, whole entry: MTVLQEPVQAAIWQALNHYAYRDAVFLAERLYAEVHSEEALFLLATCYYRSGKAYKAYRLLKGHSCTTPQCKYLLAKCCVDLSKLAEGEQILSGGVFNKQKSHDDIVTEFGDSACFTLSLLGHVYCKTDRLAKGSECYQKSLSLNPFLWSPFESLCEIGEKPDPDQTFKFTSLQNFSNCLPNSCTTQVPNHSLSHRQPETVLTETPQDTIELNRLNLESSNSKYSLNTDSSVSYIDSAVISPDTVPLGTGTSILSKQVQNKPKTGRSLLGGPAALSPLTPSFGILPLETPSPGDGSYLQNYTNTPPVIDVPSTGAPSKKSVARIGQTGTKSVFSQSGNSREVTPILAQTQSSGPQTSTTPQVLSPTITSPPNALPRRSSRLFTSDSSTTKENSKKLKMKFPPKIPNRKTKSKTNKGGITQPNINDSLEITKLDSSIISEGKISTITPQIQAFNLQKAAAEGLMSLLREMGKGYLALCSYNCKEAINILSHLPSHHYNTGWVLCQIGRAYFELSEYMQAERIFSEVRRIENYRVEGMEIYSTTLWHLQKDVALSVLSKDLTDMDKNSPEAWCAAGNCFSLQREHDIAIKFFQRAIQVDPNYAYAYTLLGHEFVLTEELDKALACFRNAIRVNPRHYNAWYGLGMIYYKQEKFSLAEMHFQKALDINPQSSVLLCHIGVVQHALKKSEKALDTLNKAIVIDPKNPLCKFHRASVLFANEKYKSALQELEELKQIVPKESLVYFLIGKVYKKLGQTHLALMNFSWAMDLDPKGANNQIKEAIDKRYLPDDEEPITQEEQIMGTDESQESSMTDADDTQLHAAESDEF
UniProt O95067, whole entry, looked up: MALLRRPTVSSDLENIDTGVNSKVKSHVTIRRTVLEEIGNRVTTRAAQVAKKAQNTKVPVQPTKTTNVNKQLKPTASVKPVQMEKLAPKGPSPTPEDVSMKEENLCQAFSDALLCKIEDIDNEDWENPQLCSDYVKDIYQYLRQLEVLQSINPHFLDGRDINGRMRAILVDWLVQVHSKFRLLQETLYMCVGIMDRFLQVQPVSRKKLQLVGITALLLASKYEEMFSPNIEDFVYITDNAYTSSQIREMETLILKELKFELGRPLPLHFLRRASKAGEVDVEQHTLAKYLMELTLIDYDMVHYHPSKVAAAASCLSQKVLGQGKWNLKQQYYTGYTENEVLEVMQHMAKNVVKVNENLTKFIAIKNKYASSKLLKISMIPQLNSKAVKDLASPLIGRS
UniProt Q8IXH7, whole entry, looked up: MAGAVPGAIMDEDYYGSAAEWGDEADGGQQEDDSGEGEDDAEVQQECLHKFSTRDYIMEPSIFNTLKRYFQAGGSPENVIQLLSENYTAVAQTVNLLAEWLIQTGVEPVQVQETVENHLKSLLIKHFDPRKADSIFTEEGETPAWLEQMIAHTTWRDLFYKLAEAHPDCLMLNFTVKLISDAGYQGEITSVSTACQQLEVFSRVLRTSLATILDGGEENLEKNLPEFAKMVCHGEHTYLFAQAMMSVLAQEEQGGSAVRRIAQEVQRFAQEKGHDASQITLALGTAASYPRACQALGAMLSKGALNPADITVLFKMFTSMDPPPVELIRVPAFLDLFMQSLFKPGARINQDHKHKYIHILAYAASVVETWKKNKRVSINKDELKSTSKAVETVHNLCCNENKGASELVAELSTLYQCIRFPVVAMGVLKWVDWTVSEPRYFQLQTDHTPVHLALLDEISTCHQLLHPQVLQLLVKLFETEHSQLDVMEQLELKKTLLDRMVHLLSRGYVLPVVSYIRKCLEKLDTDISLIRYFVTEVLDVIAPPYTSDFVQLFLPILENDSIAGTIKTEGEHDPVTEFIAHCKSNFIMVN
UniProt Q8ND25: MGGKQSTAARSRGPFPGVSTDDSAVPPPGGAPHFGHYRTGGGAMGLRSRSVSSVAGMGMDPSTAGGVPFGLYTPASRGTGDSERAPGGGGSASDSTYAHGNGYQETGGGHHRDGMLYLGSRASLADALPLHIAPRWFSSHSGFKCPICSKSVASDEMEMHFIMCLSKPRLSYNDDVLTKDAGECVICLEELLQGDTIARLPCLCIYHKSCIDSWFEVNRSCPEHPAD

Compound: Nc1ncnc2c1ncn2[C@@H]1O[C@H](COP(=O)(O)OP(=O)(O)NP(=O)(O)O)[C@@H](O)[C@H]1O [adenylyl imidodiphosphate]
Assay: NP40-soluble protein abundance relative to vehicle (solubility fold change) (ratio); higher = more soluble protein in presence of AMP-PNP
Summary of the method: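 In three independent experiments, Jurkat crude lysate made by Dounce homogenisation was treated for 10 min at room temperature and then 3 min at 37 °C with eight concentrations ranging from 0.1 to 10 mM. It was then solubilised with 0.8% NP40 plus benzonase for 60 min at 4 °C and ultracentrifuged. The supernatant was TMT-labelled for LC-MS/MS, and each value is the fold change against the detergent-processed vehicle for the same replicate, using vsn-normalised intensities.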

Target	NP40-soluble protein abundance (concentration: 1mM)	NP40-soluble protein abundance (concentration: 2mM)	NP40-soluble protein abundance (concentration: 4mM)	NP40-soluble protein abundance (concentration: 6mM)	NP40-soluble protein abundance (concentration: 8mM)	NP40-soluble protein abundance (concentration: 10mM)
G3V5N8 and related entries (UniProt Q9HBF4)	0.991 ± 0.012	0.986 ± 0.035	0.987 ± 0.054	0.96 ± 0.021	0.968 ± 0.0098	0.938 ± 0.047
J3QKT3 and related entries (UniProt P32322)	1 ± 0.017	1 ± 0.068	0.998 ± 0.046	1.04 ± 0.048	1.03 ± 0.041	1.05 ± 0.013
H0YEL0 and related entries (UniProt O14893)	0.965 ± 0.047	0.994 ± 0.017	0.996 ± 0.059	0.969 ± 0.071	0.967 ± 0.074	0.974 ± 0.065
J3QK89 and related entries (UniProt Q8IWX8)	1.1 ± 0.038	1.16 ± 0.088	1.15 ± 0.043	1.2 ± 0.1	1.19 ± 0.089	1.25 ± 0.1
J3QKK3 and related entries (UniProt O43502)	0.9837 ± 0.0043	1.01 ± 0.013	0.976 ± 0.0084	0.937 ± 0.042	0.933 ± 0.019	0.951 ± 0.031
J3KTD6 and related entries (UniProt Q96GD4)	1.022 ± 0.003	1.016 ± 0.01	1 ± 0.011	1.05 ± 0.028	1.07 ± 0.065	1.08 ± 0.11
I3L448 and related entries (UniProt Q5TC12)	1.01 ± 0.033	1.02 ± 0.015	1.01 ± 0.039	0.992 ± 0.029	0.965 ± 0.027	0.977 ± 0.039
J3KNI1 and related entries (UniProt Q9H9E3)	0.974 ± 0.015	0.967 ± 0.032	0.977 ± 0.047	0.95 ± 0.028	0.947 ± 0.059	0.943 ± 0.039
H3BPB8 and related entries (UniProt P34949)	1.029 ± 0.0072	1.01 ± 0.039	1.02 ± 0.027	0.976 ± 0.029	1.01 ± 0.042	0.988 ± 0.048
J3KNL6 and related entries (UniProt O15027)	0.962 ± 0.069	0.957 ± 0.063	0.932 ± 0.12	0.862 ± 0.1	0.844 ± 0.13	0.849 ± 0.14
I3L4I4 and related entries (UniProt O75674)	1 ± 0.03	1.02 ± 0.013	1.01 ± 0.038	0.994 ± 0.015	0.981 ± 0.047	0.993 ± 0.043
H3BPT7 and related entries (UniProt Q8N554)	1.01 ± 0.029	0.984 ± 0.013	0.9796 ± 0.0046	1.01 ± 0.037	0.992 ± 0.024	0.998 ± 0.024
H3BP20 and related entries (UniProt P06865)	0.949 ± 0.072	0.911 ± 0.036	0.946 ± 0.035	1.01 ± 0.11	0.986 ± 0.088	0.966 ± 0.072
J3KMZ7 and related entries (UniProt Q9H0H0)	1.04 ± 0.041	1.03 ± 0.05	1.05 ± 0.033	1.06 ± 0.069	1.04 ± 0.054	1.09 ± 0.056
J3KP27 and related entries (UniProt Q9Y296)	0.994 ± 0.015	0.96 ± 0.06	0.972 ± 0.011	0.959 ± 0.034	0.986 ± 0.031	0.906 ± 0.032
I3L0U5 and related entries (UniProt Q6PK04)	0.986 ± 0.019	0.98 ± 0.016	1.003 ± 0.0058	1.0016 ± 0.00038	1.03 ± 0.021	1.01 ± 0.032
J3KTE4 and related entries (UniProt P84098)	1.01 ± 0.069	1.03 ± 0.093	1 ± 0.065	0.966 ± 0.07	0.902 ± 0.13	1.07 ± 0.015
I3L2J8 and related entries (UniProt Q9UPN4)	0.999 ± 0.013	1.02 ± 0.033	1.03 ± 0.015	1.01 ± 0.023	1.02 ± 0.048	1.01 ± 0.056
J3QS69 and related entries (UniProt P60842)	1.03 ± 0.03	0.915 ± 0.061	1.01 ± 0.019	1.05 ± 0.067	1.12 ± 0.041	1.06 ± 0.016
G8JLB3 and related entries (UniProt Q9Y606)	0.9809 ± 0.0094	0.948 ± 0.058	1 ± 0.018	0.986 ± 0.009	0.989 ± 0.019	0.994 ± 0.033
H0Y6Y6 and related entries (UniProt P29017)	0.995 ± 0.053	1.03 ± 0.077	0.972 ± 0.063	1.07 ± 0.046	1.03 ± 0.056	1.03 ± 0.087
H3BSW0 and related entries (UniProt Q8N9N7)	0.99 ± 0.038	0.983 ± 0.016	0.943 ± 0.022	0.95 ± 0.018	0.96 ± 0.011	0.955 ± 0.022
H7C4C8 and related entries (UniProt P50990)	0.972 ± 0.057	0.964 ± 0.027	0.929 ± 0.069	0.935 ± 0.086	0.912 ± 0.091	0.931 ± 0.13
K7EJ78 and related entries (UniProt P62841)	1.01 ± 0.047	0.98 ± 0.078	0.985 ± 0.07	0.951 ± 0.072	0.946 ± 0.042	0.976 ± 0.12
H0Y4B0 and related entries (UniProt O43414)	1.02 ± 0.035	1 ± 0.021	1.06 ± 0.087	1.1 ± 0.15	1.1 ± 0.1	1.12 ± 0.13
G5EA36 and related entries (UniProt P30260)	0.972 ± 0.022	0.974 ± 0.036	0.977 ± 0.049	0.983 ± 0.071	0.983 ± 0.093	0.986 ± 0.1
G3V5T9 and related entries (UniProt P24941)	0.988 ± 0.06	0.934 ± 0.027	0.978 ± 0.054	1 ± 0.062	1.01 ± 0.025	0.99 ± 0.055
H1UBN3 and related entries (UniProt O95067+H1UBN3)	1.011 ± 0.008	1.03 ± 0.016	1 ± 0.02	0.982 ± 0.018	1.03 ± 0.063	1.016 ± 0.0047
H0UI80 and related entries (UniProt X6RLT1+Q8IXH7+H0UI80)	1.01 ± 0.012	0.983 ± 0.037	1.02 ± 0.023	0.926 ± 0.065	0.945 ± 0.08	0.925 ± 0.043
H3BRB6 and related entries (UniProt Q8ND25)	1.01 ± 0.014	1 ± 0.017	0.978 ± 0.035	0.946 ± 0.012	0.969 ± 0.017	0.924 ± 0.0025

Part of the list above, limited to NP40-soluble protein abundance (concentration: 8mM):
Target	NP40-soluble protein abundance (concentration: 8mM)
H3BPB8 and related entries (UniProt P34949)	1.01 ± 0.042
G5EA36 and related entries (UniProt P30260)	0.983 ± 0.093
